Measurements taken from patent US9951373B2, “Oplophorus-derived luciferases, novel coelenterazine substrates, and methods of use” (Promega Corporation, priority 2010, dated 2018).

Experiment: Auto-luminescence characterization of coelenterazines
Settings: 20 μM substrate on HEK293 cells, no luciferase; normalized to native coelenterazine

Compound | Autolum (norm to coel)
O=c1c(Cc2ccccc2)nc2c(Cc3ccccc3)[nH]c(-c3ccccc3)cn1-2 [coelenterazine-hh, bisdeoxycoelenterazine, reference compound] | 0.3
CCc1nc2c(Cc3ccccc3)[nH]c(-c3ccccc3)cn-2c1=O [PBI-3925, 8-benzyl-2-ethyl-6-phenylimidazo[1,2-a]pyrazin-3(7H)-one] | 0.2
Cc1nc2c(Cc3ccccc3)[nH]c(-c3ccccc3)cn-2c1=O [PBI-3932, 8-benzyl-2-methyl-6-phenylimidazo[1,2-a]pyrazin-3(7H)-one] | 0.1
Cc1[nH]c(-c2ccccc2)cn2c(=O)c(Cc3ccc(O)cc3)nc1-2 [PBI-3896, 2-(4-hydroxybenzyl)-8-methyl-6-phenylimidazo[1,2-a]pyrazin-3(7H)-one] | 0.1
coelenterazine-h [reference compound] | 1.2
O=c1c(Cc2ccco2)nc2c(Cc3ccccc3)[nH]c(-c3ccccc3)cn1-2 [PBI-3939, 8-benzyl-2-(furan-2-ylmethyl)-6-phenylimidazo[1,2-a]pyrazin-3(7H)-one] | 0.2
O=c1c(Cc2ccc(O)cc2)nc2c(Cc3ccccc3)[nH]c(-c3ccccc3)cn1-2 [PBI-3840, 8-benzyl-2-(4-hydroxybenzyl)-6-phenylimidazo[1,2-a]pyrazin-3(7H)-one] | 0.2
O=c1c(Cc2cccs2)nc2c(Cc3ccccc3)[nH]c(-c3ccccc3)cn1-2 [PBI-3889, 8-benzyl-6-phenyl-2-(thiophen-2-ylmethyl)imidazo[1,2-a]pyrazin-3(7H)-one] | 0.2
O=c1c(Cc2cccs2)nc2c(Cc3ccccc3)[nH]c(-c3ccc(O)cc3)cn1-2 [PBI-4002] | 0.6
Oc1ccc(Cc2nc3c(Cc4ccccc4)nc(-c4ccc(O)cc4)cn3c2O)cc1 [native coelenterazine, coelenterazine] | 1
O=c1c(Cc2ccc(O)cc2)nc2c[nH]c(-c3ccccc3)cn1-2 [PBI-3894] | 0.2
O=c1c(Cc2ccco2)nc2c(Cc3ccccc3)[nH]c(-c3ccc(O)cc3)cn1-2 [PBI-3945] | 0.5
O=c1c(Cc2ccc(O)cc2)nc2c(C3CC3)[nH]c(-c3ccccc3)cn1-2 [PBI-3897, 8-cyclopropyl-2-(4-hydroxybenzyl)-6-phenylimidazo[1,2-a]pyrazin-3(7H)-one] | 0.1
CC(C)c1[nH]c(-c2ccccc2)cn2c(=O)c(Cc3ccc(O)cc3)nc1-2 [PBI-3841] | 0.1
